Results are given in words; binding and its absence hold for the method and conditions named. Binding seen in cells or lysates may run through a third protein. Some entries that bind do so weakly or less than the wild type. For part of these data: Sequences can lack the tags named with a protein. Each block holds one binder with its values, some of them ahead of it.
Key:
[1] = molecular target: ninjurin-1 (NINJ1), endogenous mouse (mouse (endogenous in BMDMs and MEFs)) (UniProt O70131); assay: cross-linking
NINJ1-GFP (human) = molecular target: T1, NINJ1-GFP (human) (UniProt Q92982); assay: co-IP
T1 sequence: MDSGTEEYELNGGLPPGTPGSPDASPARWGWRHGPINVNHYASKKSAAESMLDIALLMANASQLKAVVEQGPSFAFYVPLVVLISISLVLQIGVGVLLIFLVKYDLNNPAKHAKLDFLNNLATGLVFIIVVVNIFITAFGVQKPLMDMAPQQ

NINJ2-GFP (human) = molecular target: T2, NINJ2-GFP (human) (UniProt Q9NZG7); assay: co-IP
T2 sequence: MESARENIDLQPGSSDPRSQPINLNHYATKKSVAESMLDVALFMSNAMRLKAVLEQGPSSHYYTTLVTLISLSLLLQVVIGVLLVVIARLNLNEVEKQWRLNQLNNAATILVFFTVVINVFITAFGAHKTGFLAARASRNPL

B1: ninjurin-1 (NINJ1), endogenous mouse (protein, UniProt O70131 1-152)
chain: MESGTEEYELNGDLRPGSPGSPDALPPRWGLRNRPINVNHYANKKSAAESMLDIALLMANASQLKAVVEQGNDFAFFVPLVVLISISLVLQIGVGVLLIFLVKYDLNNPAKHAKLDFLNNLATGLVFIIVVVNIFITAFGVQKPVMDVAPRQ
binding [1]: binds

binding (NINJ1-GFP (human)): binds
B2: NINJ2-mCherry (protein, UniProt Q9NZG7 1-142)
chain: T2 sequence

binding (NINJ2-GFP (human)): binds
B3: NINJ1-mCherry (protein, UniProt Q92982)
chain: T1 sequence

— publication doi:10.1101/2024.10.29.620849
